PubChem BioAssay AID1224829, NIAID, 2016

Screen: 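Genes needed for LPS-driven NF-kappaB p65 nuclear entry in mouse macrophages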 (follow-up of hits)
Cells: mouse RAW264.7 G9 macrophage reporter cells
Reagent: single siRNA against mouse genes, 100 nM
Timing: 2 days of siRNA knock-down, then 40 min of LPS before fixing
Conditions: LPS (Salmonella minnesota R595) at 10 ng/ml
Read-out: 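Imaging of GFP-p65 after 40 min of LPS; nuclear over perinuclear ring intensity ratio, scaled to plate median and non-targeting control wells, given as z-score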
Scale: p65 translocation z-score: higher = more nuclear NF-kappaB p65 after LPS
Call rule: 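Active means the replicate-mean z-score lies beyond plus or minus 2, in either direction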
Meaning of the calls: active = changed p65 translocation (either direction); inactive = no clear change
The deposit covers about 3,800 reagents; this is a random part of them. 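Calls cover raised and lowered translocation; gene median uses one vendor's three siRNAs; qiagen siRNAs acted more weakly than ambion siRNAs.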 Further read-outs or replicates are left out here.

no.	gene symbol	PubChem SID	siRNA vendor or control pool	p65 translocation z-score, replicate mean	p65 translocation z-score, replicate 1	activity call
1	Cd300c (CD300C molecule)	SID315489141	ambion single siRNA	-5.27	-5.63	active
2	Cd300c (CD300C molecule)	SID315489142	ambion single siRNA	1.42	1.57	inactive
3	Cd300c (CD300C molecule)	SID315489143	ambion single siRNA	0.344	-0.0835	inactive
4	Cd300c (CD300C molecule)	SID315489144	qiagen single siRNA	-3.64	-4.46	active
5	Cd300c (CD300C molecule)	SID315489145	qiagen single siRNA	0.842	0.726	inactive
6	Cd300c (CD300C molecule)	SID315489146	qiagen single siRNA	-7.74	-7.74	active
7	Klk1 (kallikrein 1)	SID315484452	ambion single siRNA	-0.851	-0.593	inactive
8	Klk1 (kallikrein 1)	SID315484453	ambion single siRNA	-7.61	-8.46	active
9	Klk1 (kallikrein 1)	SID315484454	ambion single siRNA	-4.15	-4.61	active
10	Klk1 (kallikrein 1)	SID315484455	qiagen single siRNA	0.202	0.412	inactive
11	Klk1 (kallikrein 1)	SID315484456	qiagen single siRNA	0.484	0.691	inactive
12	Klk1 (kallikrein 1)	SID315484457	qiagen single siRNA	-4.93	-3.53	active
13	2410018L13Rik (RIKEN cDNA 2410018L13 gene)	SID315486588	ambion single siRNA	-4.29	-5.35	active
14	2410018L13Rik (RIKEN cDNA 2410018L13 gene)	SID315486589	ambion single siRNA	-5.19	-5.96	active
15	2410018L13Rik (RIKEN cDNA 2410018L13 gene)	SID315486590	ambion single siRNA	-2.95	-0.72	active
16	2410018L13Rik (RIKEN cDNA 2410018L13 gene)	SID315486591	qiagen single siRNA	1.12	1.68	inactive
17	2410018L13Rik (RIKEN cDNA 2410018L13 gene)	SID315486592	qiagen single siRNA	-4.27	-4.27	active
18	2410018L13Rik (RIKEN cDNA 2410018L13 gene)	SID315486593	qiagen single siRNA	-0.0553	-1.03	inactive
19	Cyp4a31 (cytochrome P450, family 4, subfamily a, polypeptide 31)	SID315489315	qiagen single siRNA	-0.447	-0.77	inactive
20	Cyp4a31 (cytochrome P450, family 4, subfamily a, polypeptide 31)	SID315489316	qiagen single siRNA	-3.98	-7.64	active
21	Cyp4a31 (cytochrome P450, family 4, subfamily a, polypeptide 31)	SID315489317	qiagen single siRNA	0.465	-1.26	inactive
22	Grb2 (growth factor receptor bound protein 2)	SID315484227	ambion single siRNA	1.55	1.79	inactive
23	Grb2 (growth factor receptor bound protein 2)	SID315484228	ambion single siRNA	-2.43	-2.88	active
24	Grb2 (growth factor receptor bound protein 2)	SID315484229	ambion single siRNA	-1.1	-1.1	inactive
25	Grb2 (growth factor receptor bound protein 2)	SID315484230	qiagen single siRNA	1.06	-0.201	inactive
26	Grb2 (growth factor receptor bound protein 2)	SID315484231	qiagen single siRNA	1.5	-0.334	inactive
27	Grb2 (growth factor receptor bound protein 2)	SID315484232	qiagen single siRNA	-0.504	-1.47	inactive
28	Tmem71 (transmembrane protein 71)	SID315488094	ambion single siRNA	2.5	3.27	active
29	Tmem71 (transmembrane protein 71)	SID315488095	ambion single siRNA	-1.97	-0.75	inactive
30	Tmem71 (transmembrane protein 71)	SID315488096	ambion single siRNA	-4.08	-4.32	active
31	Tmem71 (transmembrane protein 71)	SID315488097	qiagen single siRNA	1.83	0.954	inactive
32	Tmem71 (transmembrane protein 71)	SID315488098	qiagen single siRNA	3.85	2.59	active
33	Tmem71 (transmembrane protein 71)	SID315488099	qiagen single siRNA	1.29	-0.334	inactive
34	Nr2f2 (nuclear receptor subfamily 2, group F, member 2)	SID315483747	ambion single siRNA	4.18	5.04	active
35	Nr2f2 (nuclear receptor subfamily 2, group F, member 2)	SID315483748	ambion single siRNA	2.1	2.6	active
36	Nr2f2 (nuclear receptor subfamily 2, group F, member 2)	SID315483749	ambion single siRNA	-2.71	-3.65	active
37	Nr2f2 (nuclear receptor subfamily 2, group F, member 2)	SID315483750	qiagen single siRNA	1.52	1.13	inactive
38	Nr2f2 (nuclear receptor subfamily 2, group F, member 2)	SID315483751	qiagen single siRNA	-0.399	-0.56	inactive
39	Nr2f2 (nuclear receptor subfamily 2, group F, member 2)	SID315483752	qiagen single siRNA	0.841	0.303	inactive
